Measurements reported in paper PMC12464768.

Amino acid sequences for entries named in this document (tags omitted).
UniProt P25098: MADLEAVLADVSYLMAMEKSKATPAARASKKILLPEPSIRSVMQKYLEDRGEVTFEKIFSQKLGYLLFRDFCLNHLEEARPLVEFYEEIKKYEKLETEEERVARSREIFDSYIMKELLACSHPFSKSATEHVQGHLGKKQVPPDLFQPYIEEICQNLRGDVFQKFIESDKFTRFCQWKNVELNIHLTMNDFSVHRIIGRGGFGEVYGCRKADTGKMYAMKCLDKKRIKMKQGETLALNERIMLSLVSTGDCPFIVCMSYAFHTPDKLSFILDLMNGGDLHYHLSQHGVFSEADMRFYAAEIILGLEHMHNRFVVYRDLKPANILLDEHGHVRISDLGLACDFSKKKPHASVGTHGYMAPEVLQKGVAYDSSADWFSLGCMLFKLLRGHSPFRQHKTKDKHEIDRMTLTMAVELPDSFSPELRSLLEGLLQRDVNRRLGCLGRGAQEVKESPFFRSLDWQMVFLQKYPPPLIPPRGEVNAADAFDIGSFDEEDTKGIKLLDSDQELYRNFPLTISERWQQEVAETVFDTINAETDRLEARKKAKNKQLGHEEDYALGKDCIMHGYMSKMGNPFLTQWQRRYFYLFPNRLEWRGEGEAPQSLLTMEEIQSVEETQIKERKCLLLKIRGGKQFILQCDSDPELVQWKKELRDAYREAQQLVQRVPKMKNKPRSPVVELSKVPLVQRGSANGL
UniProt Q9C0D3: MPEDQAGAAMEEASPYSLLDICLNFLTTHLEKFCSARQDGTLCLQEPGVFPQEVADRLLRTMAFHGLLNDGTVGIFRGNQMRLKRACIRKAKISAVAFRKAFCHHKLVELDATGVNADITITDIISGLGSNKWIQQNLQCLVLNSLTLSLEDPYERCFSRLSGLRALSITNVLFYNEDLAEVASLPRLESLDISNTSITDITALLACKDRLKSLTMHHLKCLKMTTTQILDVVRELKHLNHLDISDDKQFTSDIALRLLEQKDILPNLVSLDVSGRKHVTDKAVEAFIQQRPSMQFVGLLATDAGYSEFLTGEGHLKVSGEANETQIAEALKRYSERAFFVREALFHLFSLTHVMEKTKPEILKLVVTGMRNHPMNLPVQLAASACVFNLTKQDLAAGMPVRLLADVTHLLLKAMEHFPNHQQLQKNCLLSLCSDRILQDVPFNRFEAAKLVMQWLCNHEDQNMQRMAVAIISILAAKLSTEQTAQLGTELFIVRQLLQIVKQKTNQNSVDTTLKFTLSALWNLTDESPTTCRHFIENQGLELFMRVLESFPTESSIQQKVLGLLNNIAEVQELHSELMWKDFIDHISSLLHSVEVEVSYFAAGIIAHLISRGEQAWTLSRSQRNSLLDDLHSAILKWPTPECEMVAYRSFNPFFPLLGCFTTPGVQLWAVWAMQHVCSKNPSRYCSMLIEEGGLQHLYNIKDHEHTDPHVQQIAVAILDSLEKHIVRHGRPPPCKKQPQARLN
UniProt P32121: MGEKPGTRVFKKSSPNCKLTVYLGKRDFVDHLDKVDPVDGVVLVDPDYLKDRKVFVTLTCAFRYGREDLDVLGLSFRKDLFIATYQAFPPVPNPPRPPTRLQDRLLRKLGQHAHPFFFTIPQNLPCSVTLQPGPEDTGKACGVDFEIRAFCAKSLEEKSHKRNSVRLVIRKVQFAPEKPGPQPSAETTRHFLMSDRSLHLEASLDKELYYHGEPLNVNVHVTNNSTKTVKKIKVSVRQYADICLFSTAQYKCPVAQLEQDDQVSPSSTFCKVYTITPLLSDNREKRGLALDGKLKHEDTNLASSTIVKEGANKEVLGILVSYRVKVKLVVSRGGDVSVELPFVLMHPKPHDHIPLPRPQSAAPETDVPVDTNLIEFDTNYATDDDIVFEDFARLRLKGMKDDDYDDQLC
UniProt Q13283: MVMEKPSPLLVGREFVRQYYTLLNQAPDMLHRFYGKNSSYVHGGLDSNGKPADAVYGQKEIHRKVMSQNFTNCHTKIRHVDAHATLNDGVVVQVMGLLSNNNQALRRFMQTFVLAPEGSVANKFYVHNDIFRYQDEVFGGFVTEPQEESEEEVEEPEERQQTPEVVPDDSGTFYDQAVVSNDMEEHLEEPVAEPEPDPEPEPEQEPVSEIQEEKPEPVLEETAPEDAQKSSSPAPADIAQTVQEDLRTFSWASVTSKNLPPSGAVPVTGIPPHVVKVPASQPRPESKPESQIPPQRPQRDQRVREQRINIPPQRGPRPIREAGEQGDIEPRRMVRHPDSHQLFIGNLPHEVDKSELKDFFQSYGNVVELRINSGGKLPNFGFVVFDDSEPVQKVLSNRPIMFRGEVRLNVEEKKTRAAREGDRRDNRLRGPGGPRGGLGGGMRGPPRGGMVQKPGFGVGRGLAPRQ
UniProt Q9Y520: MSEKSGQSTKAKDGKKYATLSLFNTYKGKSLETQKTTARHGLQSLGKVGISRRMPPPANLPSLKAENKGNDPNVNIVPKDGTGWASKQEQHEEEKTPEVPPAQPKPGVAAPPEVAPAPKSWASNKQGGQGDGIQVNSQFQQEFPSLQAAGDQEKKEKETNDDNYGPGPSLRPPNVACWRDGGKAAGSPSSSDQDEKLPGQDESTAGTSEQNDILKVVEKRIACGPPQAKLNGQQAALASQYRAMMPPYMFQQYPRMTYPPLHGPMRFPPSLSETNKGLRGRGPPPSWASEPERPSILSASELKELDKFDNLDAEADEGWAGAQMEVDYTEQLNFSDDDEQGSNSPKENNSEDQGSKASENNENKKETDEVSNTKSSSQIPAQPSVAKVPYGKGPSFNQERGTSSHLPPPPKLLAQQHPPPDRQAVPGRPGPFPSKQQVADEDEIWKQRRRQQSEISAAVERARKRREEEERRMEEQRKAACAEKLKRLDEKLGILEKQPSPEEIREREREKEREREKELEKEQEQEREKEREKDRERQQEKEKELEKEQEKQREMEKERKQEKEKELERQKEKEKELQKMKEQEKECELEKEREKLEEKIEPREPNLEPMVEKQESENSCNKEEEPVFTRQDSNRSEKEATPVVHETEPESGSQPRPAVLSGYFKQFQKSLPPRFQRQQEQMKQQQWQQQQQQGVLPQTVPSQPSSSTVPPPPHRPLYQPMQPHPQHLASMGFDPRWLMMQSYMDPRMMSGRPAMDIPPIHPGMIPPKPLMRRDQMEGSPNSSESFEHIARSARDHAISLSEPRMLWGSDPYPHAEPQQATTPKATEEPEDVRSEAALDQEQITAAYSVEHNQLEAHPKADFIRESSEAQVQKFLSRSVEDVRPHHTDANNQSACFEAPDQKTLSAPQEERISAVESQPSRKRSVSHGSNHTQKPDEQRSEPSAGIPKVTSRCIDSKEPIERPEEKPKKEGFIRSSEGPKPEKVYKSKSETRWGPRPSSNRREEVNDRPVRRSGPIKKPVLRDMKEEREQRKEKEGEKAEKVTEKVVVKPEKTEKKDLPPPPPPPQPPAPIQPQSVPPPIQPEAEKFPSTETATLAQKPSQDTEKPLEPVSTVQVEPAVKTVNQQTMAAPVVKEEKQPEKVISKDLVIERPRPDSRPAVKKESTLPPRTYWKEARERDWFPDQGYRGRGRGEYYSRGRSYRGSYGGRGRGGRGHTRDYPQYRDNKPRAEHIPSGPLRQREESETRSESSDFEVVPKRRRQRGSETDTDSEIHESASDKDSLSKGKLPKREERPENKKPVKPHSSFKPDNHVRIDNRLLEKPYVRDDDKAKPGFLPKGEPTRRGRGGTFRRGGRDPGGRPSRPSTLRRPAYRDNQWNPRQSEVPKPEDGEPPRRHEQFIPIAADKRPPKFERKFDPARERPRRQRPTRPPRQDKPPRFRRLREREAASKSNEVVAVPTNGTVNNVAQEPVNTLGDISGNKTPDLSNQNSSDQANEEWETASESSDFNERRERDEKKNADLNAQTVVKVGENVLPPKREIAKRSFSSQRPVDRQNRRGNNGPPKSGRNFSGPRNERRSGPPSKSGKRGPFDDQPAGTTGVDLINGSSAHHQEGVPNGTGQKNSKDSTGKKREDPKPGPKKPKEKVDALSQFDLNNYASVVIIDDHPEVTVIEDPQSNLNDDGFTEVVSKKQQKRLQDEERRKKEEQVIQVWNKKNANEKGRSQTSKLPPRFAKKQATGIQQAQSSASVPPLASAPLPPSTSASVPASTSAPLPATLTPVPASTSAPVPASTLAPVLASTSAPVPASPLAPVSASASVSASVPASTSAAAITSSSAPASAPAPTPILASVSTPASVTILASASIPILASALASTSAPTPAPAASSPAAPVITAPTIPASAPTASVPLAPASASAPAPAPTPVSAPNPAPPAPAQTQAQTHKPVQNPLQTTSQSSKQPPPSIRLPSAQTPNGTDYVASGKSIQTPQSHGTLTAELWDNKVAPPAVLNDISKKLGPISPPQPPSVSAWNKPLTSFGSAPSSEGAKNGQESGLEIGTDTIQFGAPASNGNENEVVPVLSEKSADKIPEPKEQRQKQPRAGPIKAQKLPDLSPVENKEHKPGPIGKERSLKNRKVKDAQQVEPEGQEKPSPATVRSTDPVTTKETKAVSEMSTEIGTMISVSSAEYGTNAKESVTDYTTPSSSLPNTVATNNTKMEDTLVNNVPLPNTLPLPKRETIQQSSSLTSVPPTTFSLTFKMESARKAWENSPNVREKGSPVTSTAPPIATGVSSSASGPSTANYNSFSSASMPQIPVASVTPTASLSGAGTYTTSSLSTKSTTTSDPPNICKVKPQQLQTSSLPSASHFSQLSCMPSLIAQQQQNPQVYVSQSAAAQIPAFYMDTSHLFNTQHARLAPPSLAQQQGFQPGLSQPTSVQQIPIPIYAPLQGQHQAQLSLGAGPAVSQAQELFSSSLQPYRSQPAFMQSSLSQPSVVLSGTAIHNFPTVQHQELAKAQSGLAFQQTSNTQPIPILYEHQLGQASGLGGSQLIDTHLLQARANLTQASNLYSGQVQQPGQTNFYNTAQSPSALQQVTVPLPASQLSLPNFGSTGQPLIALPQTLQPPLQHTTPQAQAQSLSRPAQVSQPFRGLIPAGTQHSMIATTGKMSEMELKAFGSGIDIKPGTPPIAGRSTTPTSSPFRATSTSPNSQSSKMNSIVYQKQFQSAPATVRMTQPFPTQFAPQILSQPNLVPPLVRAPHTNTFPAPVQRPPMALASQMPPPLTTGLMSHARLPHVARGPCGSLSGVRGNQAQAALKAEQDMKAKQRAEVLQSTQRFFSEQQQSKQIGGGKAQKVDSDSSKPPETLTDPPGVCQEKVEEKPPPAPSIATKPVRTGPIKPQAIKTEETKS
UniProt Q9UKI8: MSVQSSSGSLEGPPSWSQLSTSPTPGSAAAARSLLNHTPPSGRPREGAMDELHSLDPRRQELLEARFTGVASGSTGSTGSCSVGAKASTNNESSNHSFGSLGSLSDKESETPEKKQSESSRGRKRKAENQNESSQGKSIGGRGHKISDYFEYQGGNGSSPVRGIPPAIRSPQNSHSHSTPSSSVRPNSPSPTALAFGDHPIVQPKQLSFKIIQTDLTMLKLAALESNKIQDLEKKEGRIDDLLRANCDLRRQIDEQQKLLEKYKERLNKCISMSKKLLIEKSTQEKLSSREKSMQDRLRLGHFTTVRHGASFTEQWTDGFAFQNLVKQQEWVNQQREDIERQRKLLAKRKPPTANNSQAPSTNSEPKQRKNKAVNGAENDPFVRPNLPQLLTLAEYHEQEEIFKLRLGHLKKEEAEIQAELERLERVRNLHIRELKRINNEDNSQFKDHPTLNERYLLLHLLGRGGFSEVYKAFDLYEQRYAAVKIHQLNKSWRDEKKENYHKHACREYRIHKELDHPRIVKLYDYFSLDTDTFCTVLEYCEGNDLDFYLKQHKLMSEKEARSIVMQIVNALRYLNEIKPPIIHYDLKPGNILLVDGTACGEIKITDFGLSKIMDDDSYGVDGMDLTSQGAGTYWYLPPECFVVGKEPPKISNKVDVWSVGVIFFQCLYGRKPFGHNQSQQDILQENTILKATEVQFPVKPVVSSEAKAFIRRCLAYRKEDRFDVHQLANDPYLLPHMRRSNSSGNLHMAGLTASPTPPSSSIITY

target: human μ-opioid receptor fused with the BRET-ID sequence (human) (UniProt P35372); assay: proximity labelling; BRET-ID: HEK293T expressing hMOR-BRET-ID, 1 min furimazine labelling after DAMGO stimulation for 0, 5 and 30 min; streptavidin enrichment, DIA LC-MS/MS

Molecule	binding
GRK2 (from UniProt P25098 1-689) (enzyme)	binds
ZYG11B (endogenous) (from UniProt Q9C0D3 1-744)	binds
protein kinase C alpha (from UniProt P17252 1-672) (enzyme)	binds
β-arrestin-2 (endogenous) (from UniProt P32121 1-409)	binds

target: G3BP1 (Ras GTPase-activating protein-binding protein 1) fused to the BRET-ID tag (UniProt Q13283); assay: proximity labelling; BRET-ID in vivo: tumor xenografts expressing G3BP1-BRET-ID in nude mice, intratumoral injection of furimazine and alkyne-aniline; FISAP streptavidin enrichment, DIA LC-MS/MS

Molecule	binding
MED13 (Mediator of RNA polymerase II transcription subunit 13) (from UniProt Q9UHV7 1-2174)	binds

target: human μ-opioid receptor fused with the BRET-ID sequence (human) (UniProt P35372); assay: proximity labelling; BRET-ID: HEK293T expressing hMOR-BRET-ID, 1 min furimazine labelling after DAMGO stimulation for 0, 5 and 30 min; streptavidin enrichment, DIA LC-MS/MS; remark: another data set of the same source

Molecule	binding
cyclin G-associated kinase (enzyme, UniProt O14976 1-1311) MSLLQSALDFLAGPGSLGGASGRDQSDFVGQTVELGELRLRVRRVLAEGGFAFVYEAQDVGSGREYALKRLLSNEEEKNRAIIQEVCFMKKLSGHPNIVQFCSAASIGKEESDTGQAEFLLLTELCKGQLVEFLKKMESRGPLSCDTVLKIFYQTCRAVQHMHRQKPPIIHRDLKVENLLLSNQGTIKLCDFGSATTISHYPDYSWSAQRRALVEEEITRNTTPMYRTPEIIDLYSNFPIGEKQDIWALGCILYLLCFRQHPFEDGAKLRIVNGKYSIPPHDTQYTVFHSLIRAMLQVNPEERLSIAEVVHQLQEIAAARNVNPKSPITELLEQNGGYGSATLSRGPPPPVGPAGSGYSGGLALAEYDQPYGGFLDILRGGTERLFTNLKDTSSKVIQSVANYAKGDLDISYITSRIAVMSFPAEGVESALKNNIEDVRLFLDSKHPGHYAVYNLSPRTYRPSRFHNRVSECGWAARRAPHLHTLYNICRNMHAWLRQDHKNVCVVHCMDGRAASAVAVCSFLCFCRLFSTAEAAVYMFSMKRCPPGIWPSHKRYIEYMCDMVAEEPITPHSKPILVRAVVMTPVPLFSKQRSGCRPFCEVYVGDERVASTSQEYDKMRDFKIEDGKAVIPLGVTVQGDVLIVIYHARSTLGGRLQAKMASMKMFQIQFHTGFVPRNATTVKFAKYDLDACDIQEKYPDLFQVNLEVEVEPRDRPSREAPPWENSSMRGLNPKILFSSREEQQDILSKFGKPELPRQPGSTAQYDAGAGSPEAEPTDSDSPPSSSADASRFLHTLDWQEEKEAETGAENASSKESESALMEDRDESEVSDEGGSPISSEGQEPRADPEPPGLAAGLVQQDLVFEVETPAVLPEPVPQEDGVDLLGLHSEVGAGPAVPPQACKAPSSNTDLLSCLLGPPEAASQGPPEDLLSEDPLLLASPAPPLSVQSTPRGGPPAAADPFGPLLPSSGNNSQPCSNPDLFGEFLNSDSVTVPPSFPSAHSAPPPSCSADFLHLGDLPGEPSKMTASSSNPDLLGGWAAWTETAASAVAPTPATEGPLFSPGGQPAPCGSQASWTKSQNPDPFADLGDLSSGLQGSPAGFPPGGFIPKTATTPKGSSSWQTSRPPAQGASWPPQAKPPPKACTQPRPNYASNFSVIGAREERGVRAPSFAQKPKVSENDFEDLLSNQGFSSRSDKKGPKTIAEMRKQDLAKDTDPLKLKLLDWIEGKERNIRALLSTLHTVLWDGESRWTPVGMADLVAPEQVKKHYRRAVLAVHPDKAAGQPYEQHAKMIFMELNDAWSEFENQGSRPLF	binds
CTD phosphatase subunit 1 (enzyme, UniProt Q9Y5B0 1-961) MEVPAAGRVPAEGAPTAAVAEVRCPGPAPLRLLEWRVAAGAAVRIGSVLAVFEAAASAQSSGASQSRVASGGCVRPARPERRLRSERAGVVRELCAQPGQVVAPGAVLVRLEGCSHPVVMKGLCAECGQDLTQLQSKNGKQQVPLSTATVSMVHSVPELMVSSEQAEQLGREDQQRLHRNRKLVLMVDLDQTLIHTTEQHCQQMSNKGIFHFQLGRGEPMLHTRLRPHCKDFLEKIAKLYELHVFTFGSRLYAHTIAGFLDPEKKLFSHRILSRDECIDPFSKTGNLRNLFPCGDSMVCIIDDREDVWKFAPNLITVKKYVYFQGTGDMNAPPGSRESQTRKKVNHSRGTEVSEPSPPVRDPEGVTQAPGVEPSNGLEKPARELNGSEAATPRDSPRPGKPDERDIWPPAQAPTSSQELAGAPEPQGSCAQGGRVAPGQRPAQGATGTDLDFDLSSDSESSSESEGTKSSSSASDGESEGKRGRQKPKAAPEGAGALAQGSSLEPGRPAAPSLPGEAEPGAHAPDKEPELGGQEEGERDGLCGLGNGCADRKEAETESQNSELSGVTAGESLDQSMEEEEEEDTDEDDHLIYLEEILVRVHTDYYAKYDRYLNKEIEEAPDIRKIVPELKSKVLADVAIIFSGLHPTNFPIEKTREHYHATALGAKILTRLVLSPDAPDRATHLIAARAGTEKVLQAQECGHLHVVNPDWLWSCLERWDKVEEQLFPLRDDHTKAQRENSPAAFPDREGVPPTALFHPMPVLPKAQPGPEVRIYDSNTGKLIRTGARGPPAPSSSLPIRQEPSSFRAVPPPQPQMFGEELPDAQDGEQPGPSRRKRQPSMSETMPLYTLCKEDLESMDKEVDDILGEGSDDSDSEKRRPEEQEEEPQPRKPGTRRERTLGAPASSERSAAGGRGPRGHKRKLNEEDAASESSRESSNEDEGSSSEADEMAKALEAELNDLM	binds
Septin7 (endogenous) (protein, UniProt Q16181 1-437) MSVSARSAAAEERSVNSSTMVAQQKNLEGYVGFANLPNQVYRKSVKRGFEFTLMVVGESGLGKSTLINSLFLTDLYSPEYPGPSHRIKKTVQVEQSKVLIKEGGVQLLLTIVDTPGFGDAVDNSNCWQPVIDYIDSKFEDYLNAESRVNRRQMPDNRVQCCLYFIAPSGHGLKPLDIEFMKRLHEKVNIIPLIAKADTLTPEECQQFKKQIMKEIQEHKIKIYEFPETDDEEENKLVKKIKDRLPLAVVGSNTIIEVNGKRVRGRQYPWGVAEVENGEHCDFTILRNMLIRTHMQDLKDVTNNVHYENYRSRKLAAVTYNGVDNNKNKGQLTKSPLAQMEEERREHVAKMKKMEMEMEQVFEMKVKEKVQKLKDSEAELQRRHEQMKKNLEAQHKELEEKRRQFEDEKANWEAQQRILEQQNSSRTLEKNKKKGKIF	binds

target: G3BP1 (Ras GTPase-activating protein-binding protein 1) fused to the BRET-ID tag (UniProt Q13283); assay: proximity labelling; BRET-ID: HEK293T stably expressing G3BP1-BRET-ID, basal or 0.5 mM sodium arsenite for 60 min, 75 μM furimazine for 5 min; enrichment against a control without furimazine, DIA LC-MS/MS

Molecule	binding
PRRC2C (from UniProt Q9Y520 1-2896)	binds
TLK1 (serine/threonine-protein kinase tousled-like 1) (from UniProt Q9UKI8 1-766) (enzyme)	binds
UBAP2L (from UniProt Q14157 1-1087)	binds
UBAP2 (protein, UniProt Q5T6F2 1-1119) MMTSVSSDHCRGAREKPQISAAQSTQPQKQVVQATAEQMRLAQVIFDKNDSDFEAKVKQLMEVTGKNQDECIVALHDCNGDVNKAINILLEGNSDTTSWETVGCKKKNFAKENSENKENREKKSEKESSRGRGNNNRKGRGGNRGREFRGEENGIDCNQVDKPSDRGKRARGRGFGRGRGRGAGRFSTQGMGTFNPADYSDSTSTDVCGTKLVVWEAAQNGADEGTELASNTHNIAQDLSNKSSYGLKGAWKNSVEEWTTEDWTEDLSETKVFTASSAPAENHILPGQSIDLVALLQKPVPHSQASEANSFETSQQQGFGQALVFTNSQHNNQMAPGTGSSTAVNSCSPQSLSSVLGSGFGELAPPKMANITSSQILDQLKAPSLGQFTTTPSTQQNSTSHPTTTTSWDLKPPTSQSSVLSHLDFKSQPEPSPVLSQLSQRQQHQSQAVTVPPPGLESFPSQAKLRESTPGDSPSTVNKLLQLPSTTIENISVSVHQPQPKHIKLAKRRIPPASKIPASAVEMPGSADVTGLNVQFGALEFGSEPSLSEFGSAPSSENSNQIPISLYSKSLSEPLNTSLSMTSAVQNSTYTTSVITSCSLTSSSLNSASPVAMSSSYDQSSVHNRIPYQSPVSSSESAPGTIMNGHGGGRSQQTLDTPKTTGPPSALPSVSSLPSTTSCTALLPSTSQHTGDLTSSPLSQLSSSLSSHQSSLSAHAALSSSTSHTHASVESASSHQSSATFSTAATSVSSSASSGASLSSSMNTANSLCLGGTPASASSSSSRAAPLVTSGKAPPNLPQGVPPLLHNQYLVGPGGLLPAYPIYGYDELQMLQSRLPVDYYGIPFAAPTALASRDGSLANNPYPGDVTKFGRGDSASPAPATTPAQPQQSQSQTHHTAQQPFVNPALPPGYSYTGLPYYTGMPSAFQYGPTMFVPPASAKQHGVNLSTPTPPFQQASGYGQHGYSTGYDDLTQGTAAGDYSKGGYAGSSQAPNKSAGSGPGKGVSVSSSTTGLPDMTGSVYNKTQTFDKQGFHAGTPPPFSLPSVLGSTGPLASGAAPGYAPPPFLHILPAHQQPHSQLLHHHLPQDAQSGSGQRSQPSSLQPKSQASKPAYGNSPYWTN	binds

These are yes or no findings as the source states them, for the method shown. Binding seen in cells or lysates may run through a third protein. A yes stands for co-enrichment or nearness to the bait. Other partners may have been found.
